Measured values as given in PubChem BioAssay AID540256 (National Center for Advancing Translational Sciences (NCATS), 2011).
Screen size: about 300,000 compounds; about 3,700 (1.2%) were called active. The inconclusive results got no clear call from the source; some entries with a clear call stand among them for comparison. Calls come from the whole dose curve; tested in HEK293 cells. A potency beside an inconclusive call is a rough fit, not a confirmed value.

Experiment: qHTS for Inhibitors of binding or entry into cells for Lassa Virus; note: nearly all actives have a fitted effect of over 50% in size
Settings: Lassa virus pseudotype entry inhibition, cell reporter; series mostly up to 37.9 µM
Potency is the fitted concentration of half-maximal effect.

Q: Which Potency does the source give for CSc1nc(N)c2c(C)c(C)sc2n1 here?
A: inactive

Q: For Cc1nc2nc(C)c(CCC(=O)O)c(C)n2n1, which Potency is on record?
A: inconclusive: 29.1 µM [activator, single point]

Q: Which Potency does the source give for c1nc(N2CCC3(CC2)OCCO3)c2c3c(sc2n1)CCCC3 here?
A: inconclusive: 1 µM [inhibitor, single point]

Q: For Cc1ccc(C(=O)CN(C(=O)c2ccc(Cl)c(Cl)c2)N2C(=O)C3C4C=CC(C4)C3C2=O)cc1 (configuration not stated), which Potency is on record?
A: inconclusive: 2.31 µM [inhibitor, partial curve, poor fit]

Q: With Clc1cccc(CNCCc2c[nH]c3ccccc23)c1 as the compound, how does the Potency read?
A: inactive

Q: For CCOC(=O)CSc1c(-c2cccs2)[nH]c2ccccc12, which Potency is on record?
A: inconclusive: 16.4 µM [inhibitor, partial curve, poor fit]

Q: For Brc1ccc2[nH]c3nc(SCCN4CCOCC4)nnc3c2c1, which Potency is on record?
A: active: 0.501 µM

Q: For CCCCCCCNC1=CC(=O)CC(c2ccccc2)C1 (configuration not stated), which Potency is on record?
A: inconclusive: 4.61 µM [inhibitor, full curve, poor fit]

Q: With Cc1ccc(NC(=O)CSc2nnc3nc(C)cc(C)n23)cc1 as the compound, how does the Potency read?
A: inactive

Q: Which Potency does the source give for O=C1C=C(N2CCCCC2)c2ccccc2C1=O here?
A: active: 8.91 µM

Q: For O=C(Cc1ccc(Br)cc1)N1CCN(c2ccc(F)cc2)CC1, which Potency is on record?
A: inactive

Q: For Cc1ccccc1-n1nnnc1SCc1ncc(-c2ccccc2)o1, which Potency is on record?
A: inconclusive: 25.1 µM [inhibitor, single point]

Q: For CC(C(=O)NCc1ccccc1Cl)n1ccc2cc(S(=O)(=O)N3CCCCC3)ccc21 (configuration not stated), which Potency is on record?
A: inconclusive: 10 µM [inhibitor, partial curve, poor fit]

Q: Which Potency does the source give for CC(=O)c1ccc(N2CCN(c3ccc(NC(=O)c4cccs4)cc3C(=O)O)CC2)cc1 here?
A: inactive

Q: For COc1ccc(NC(=O)CN2C(=O)C(c3ccc(C(C)(C)C)cc3)=NC2(C)C)cc1Cl, which Potency is on record?
A: inactive

Q: For Cn1c2ccc(CC(=O)O)cc2c2cc(CC(=O)O)ccc21, which Potency is on record?
A: inactive

Q: Which Potency does the source give for COc1ccc(C(=O)C[n+]2ccc3c(c2)nc(-c2ccccc2)n3C)cc1 here?
A: inactive

Q: For CN(c1ccc(C(=O)N/N=C/c2cccc([N+](=O)[O-])c2)cc1)S(=O)(=O)c1ccccc1, which Potency is on record?
A: inconclusive: 8.91 µM [inhibitor, partial curve, poor fit]

Q: With COc1ccc(Cn2c(C(=O)O)c(CNCC(C)c3ccccc3)c3ccc(OC)cc32)cc1 (configuration not stated) as the compound, how does the Potency read?
A: inactive

Q: For Cc1nn(S(=O)(=O)c2cccs2)c(C)c1Sc1ccc([N+](=O)[O-])cc1, which Potency is on record?
A: inconclusive: 8.2 µM [inhibitor, partial curve]

Q: With COc1ccc(C(=O)Oc2ccc3c(c2)OCO3)cc1OC as the compound, how does the Potency read?
A: inactive

Q: With COc1ccc(-c2cc(-c3ccc(N)cc3)nc(N)c2C#N)cc1OC as the compound, how does the Potency read?
A: inconclusive: 10 µM [inhibitor, partial curve, poor fit]

Q: With COc1cc(C(=O)NCCCN(C)C)ccc1OCC(=O)Nc1cccc(C(F)(F)F)c1 as the compound, how does the Potency read?
A: inconclusive: 22.4 µM [inhibitor, single point]

Q: With Clc1ccc(Cn2ncc3c(N4CCCC4)ncnc32)cc1 as the compound, how does the Potency read?
A: inactive

Q: For COc1ccc(NC(=O)c2ccc(F)cc2)cc1S(=O)(=O)Nc1cc(C)ccc1Br, which Potency is on record?
A: inconclusive: 25.9 µM [inhibitor, single point]

Q: Which Potency does the source give for CC(=Nc1ccc(C)cc1)c1sc2ccccc2c1O here?
A: inconclusive: 25.9 µM [inhibitor, single point]

Q: Which Potency does the source give for COC(=O)c1ccc(NC(=O)CSc2nnc(COc3ccc4c(c3)CCCC4)o2)cc1 here?
A: inactive

Q: Which Potency does the source give for CCOC(=O)N1CCC2(O)CCCCC2C1c1ccc(F)cc1 (configuration not stated) here?
A: inactive

Q: For CCOC(=O)c1c(C)nc(C)c(C(=O)OCC)c1-c1cccc(N)c1, which Potency is on record?
A: inconclusive: 25.1 µM [inhibitor, single point]

Q: For Cc1ccc(C)c(C(=O)Cn2ncc(Cl)c(Cl)c2=O)c1, which Potency is on record?
A: inconclusive: 35.5 µM [inhibitor, single point]

Q: Which Potency does the source give for CNc1oc(-c2ccc(C)cc2)nc1P(=O)(c1ccccc1)c1ccccc1 here?
A: active: 20.6 µM

Q: Which Potency does the source give for CCN(CC)S(=O)(=O)c1cccc(-c2nnc(SC(C)C(=O)NCCC3=CCCCC3)o2)c1 (configuration not stated) here?
A: inconclusive: 18.3 µM [inhibitor, single point]

Q: With CCC(Sc1nc2c(sc3ccccc32)c(=O)n1CCc1ccccc1)C(=O)N(CC)CC (configuration not stated) as the compound, how does the Potency read?
A: inconclusive: 35.5 µM [activator, single point]

Q: For CC(C)=CCN1CCN(Cc2ccc3nsnc3c2)CC1CCO (configuration not stated), which Potency is on record?
A: inactive

Q: Which Potency does the source give for COc1ccc(/C(C)=N/NC(=O)Cc2ccc(Cl)cc2)cc1 here?
A: inconclusive: 35.5 µM [inhibitor, single point]

Q: With Cc1cc(Cc2ccc(N)c(C)c2)ccc1N as the compound, how does the Potency read?
A: inactive

Q: For CC(C)(C)C(=O)NC(=S)NNC(=O)c1sc2ccccc2c1Cl, which Potency is on record?
A: inconclusive: 15.8 µM [inhibitor, partial curve, poor fit]

Q: Which Potency does the source give for CCCCCC(=O)N1c2ccccc2C(C)(c2ccccc2)CC1(C)C (configuration not stated) here?
A: inconclusive: 35.5 µM [inhibitor, single point]

Q: With CCc1nnc(NC(=O)c2ccc(S(=O)(=O)N(CC)Cc3ccccc3)cc2)o1 as the compound, how does the Potency read?
A: inconclusive: 22.4 µM [inhibitor, single point]

Q: Which Potency does the source give for Cc1nc2ccc(C(=O)N/N=C/c3ccccc3O)cc2[nH]1 here?
A: inconclusive: 22.4 µM [inhibitor, single point]

Q: For Cc1cc(-n2c(SCC(=O)NCc3ccccc3)nc3ccsc3c2=O)ccc1Cl, which Potency is on record?
A: inconclusive: 6.31 µM [inhibitor, single point]

Q: For Cc1ccc2c(c1)c(=O)c1ccccc1n2CCCC(=O)Nc1ccc(C)c(F)c1, which Potency is on record?
A: inconclusive: 10 µM [inhibitor, partial curve, poor fit]

Q: For c1cc2c3c(cccc3c1)C(N1CCCCCC1)=N2, which Potency is on record?
A: inactive

Q: With Cc1nnc2c(N3CCN(c4ccccc4F)CC3)nc3ccccc3n12 as the compound, how does the Potency read?
A: inconclusive: 6.31 µM [activator, single point]

Q: For CSc1nc2ccc(NC(=O)c3cc4ccccc4o3)cc2s1, which Potency is on record?
A: inconclusive: 35.5 µM [inhibitor, single point]

Q: With CCOC(=O)N1CCC(NC(=O)c2cc3c(-c4cccc(OC)c4)nn(C)c3s2)CC1 as the compound, how does the Potency read?
A: inactive

Q: With CC(C)NC(=O)CCn1c(SCc2c(F)cccc2Cl)nc2c(sc3ccccc32)c1=O as the compound, how does the Potency read?
A: inactive
